Source: article PMC10281998

What was measured:
[1] = biological target: DUX-Flag (mouse); experiment: co-IP; HEK293T cells over-expressing HA-Trim43a and Zscan4, or HA-Trim43a and Dux-Flag; ZSCAN4 or DUX-Flag pulled down, TRIM43A detected by western blot; lysis in Endo-IP buffer, antibody overnight at 4 °C, protein G Dynabeads
[2] = biological target: ZSCAN4 (mouse); experiment: as above
[3] = biological target: HA-DUX (mouse); experiment: co-IP; mESCs (E14) over-expressing HA-Dux and Zfp352; HA and ZFP352 antibodies for pulldown and detection; lysis in Endo-IP buffer, antibody overnight at 4 °C, protein G Dynabeads

binding [1]: binds | binding [2]: binds
B1: HA-TRIM43A (enzyme, UniProt Q3TL54 1-445)
chain: MESDNLQDPQEETLTCSICQSIFMNPVYLRCGHKFCEACLLLSQEDIKFPAYCPMCMQPFNQEYINDISLKKQVSIVRKKRLMKYLNSKEHKCVTHKAKKMIFCDKSKILLCHLCSDSQEHSGHTHCSIDVAVQEKMEELLKHMDSLWRRLKIQQNYVEIERRTTLWWLSVKLREEVIKRVYGKQCPPLCEERDQHIECLRHQSNTTLEELRKSEATIVHERNQLIEVYRELMTMSQRPYQELLVQDLDDLFRRSKLAAKLDMPQGMIPRLHAHSIPGLTARLNSFRVKISFKHSIMFGYTSVRPFDIRLLHESTSLDSAETHRVSWGKKSFSRGKYYWEVDLKDHEQWTVGVRKDPWLRGRSYAATPTDLFLLECLRKEDHYILITRIGGEHYIEKPVGQVGVFLDCEGGYVSFVDVAKSSLILSYSPGTFHCAVRPFFSAVYT

binding [3]: binds
B2: ZFP352 (protein, UniProt A2AML7 1-551)
chain: MEMAENTGASQPGPCNTQPSPVESSQLFSGQSSEMLTWKQTVMESASCSTQETTCTQNSTAYPGKAIGFHFGQPFENTSWNQQVVSAEQKISPAGLYHTQLNSAPQICLPPQKTTRVDTRETFYNEDYWMRTLNSDKTLLTQNTAMCENQRVTFDNHQIALYGSHAGQDPNVGHAFASEHDWTSYNSHMTTRNGGHLTLYESQMTAPSCSQTLHPNQIITSFSEQNYFEDQQSNLAVNNGFYGNQVILPNGYQAFYEPQMRANFDQTNDQMKSFSGQNVCKGQENLLSGECSLSGYQTSGYRCDQDLIVNPQVTSPIGGQPLSDFQTQTSSFDTALPGSKRTRPSAEDNLACPLETSPTSEETLYLGQMRTSVDQNFYSSQNGTPNIKESLDPQVTSFSLQAPYVGESSYPSCSPLIQKQPQKNSSASSLVQRQHPEMKLDFKTQSPVSQKDPSPLKLYFCTYKGCTKFYKRAYHLKEHQKKHTDKRKYGCDEPGCTWSFFRLCDLNRHKEKHNGERFYACPLCSTNYSRLLYLKKHLEKKHAQAQPTTAT

Results are given in words; binding and its absence hold for the method and conditions named. Binding seen in cells or lysates may run through a third protein. Binding calls can cover weak binding; strength is not graded here. For part of these data: Where a sequence is shown, tags or fusion partners need not be part of it. Each block holds one binder with its values, some of them ahead of it.
